# Over roughly 33,000 sequences, “E-score (-0.5 to 0.5)” has its median near -0.0034; the highest 2% begin near 0.25. Some of the results follow.
# Biological target: T1, Yap3 (UniProt P38749)
# T1 sequence: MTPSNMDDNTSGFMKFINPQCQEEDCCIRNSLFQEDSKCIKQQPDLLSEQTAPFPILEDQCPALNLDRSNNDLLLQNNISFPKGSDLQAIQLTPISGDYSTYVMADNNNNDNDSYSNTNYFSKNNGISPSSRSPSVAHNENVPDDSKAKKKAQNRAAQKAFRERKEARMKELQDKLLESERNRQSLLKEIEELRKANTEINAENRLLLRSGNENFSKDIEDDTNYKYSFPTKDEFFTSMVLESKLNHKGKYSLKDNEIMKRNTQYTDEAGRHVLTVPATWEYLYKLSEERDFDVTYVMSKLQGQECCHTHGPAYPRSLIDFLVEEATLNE
# Assay: PBM E-score (8-mer binding enrichment) (E-score (-0.5 to 0.5)); higher = stronger / more preferred TF binding
# Details: protein concentration: 100 nM; construct: GST-full length
# Summary of the method: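 The E-score, a modified Wilcoxon-Mann-Whitney statistic, was computed by the Universal PBM Analysis Suite for every ungapped eight-base word pooled with its reverse complement. Scans behind it were normalised with masliner after bound GST-tagged yeast transcription factors were detected with fluorescent anti-GST. The proteins, at about 100-200 nM, had been applied to universal all-10-mer Agilent arrays made double-stranded by primer extension.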
row,Sequence,PBM E-score
1,CATCTCCG,0.0946
2,AAGCCACA,-0.00155
3,CCCACTCC,-0.25
4,CCGCCATA,0.144
5,AACGACCC,-0.106
6,GCACTATA,0.0864
7,ATGTCTGC,-0.0713
8,GTCCATTA,0.213
9,CCCGGAGC,-0.148
10,TCGCGTCA,0.0449
11,AAGACCAT,-0.0181
12,CCGGGACC,-0.311
13,ATGTTTCA,0.0542
14,GAAGGGAC,-0.14
15,AAGCTGAT,0.124
16,CCCCGAAG,-0.0705
17,CCTATAGA,-0.0407
18,CGTATATA,0.145
19,CTCACAAG,0.0207
20,GAGATCAA,0.081
21,GGCTACAC,-0.166
22,AGGACAAG,-0.0693
23,AATTTTCG,0.0612
24,ACAAGTAC,-0.0388
25,CACAGCAC,-0.125

row,Sequence,PBM E-score
1,AAAGACGA,0.167
2,GGATCGCC,-0.166
3,AGGGAGAG,-0.178
4,GACAGGTA,-0.0202
5,GGATCAAA,0.111
6,CATTGAGG,-0.0322
7,AGGTAGGC,-0.125
8,AGCACTAA,0.0886
9,CACGTCGA,-0.00872
10,CCTTGGTA,0.0365
11,GCTTGTAA,0.157
12,CTAAATCC,0.0159
13,ATCCATGG,-0.0629
14,AGTTCTCC,-0.0217
15,AACGCTAA,-0.122
16,CTTTGGTC,0.00396
17,CGGGATTC,0.0799
18,CTAAAAAG,0.119
19,CAGTGTCG,-0.0567
20,GCCAAGGC,-0.327
21,GGCATTGA,-0.0403
22,AAATTCGA,0.0665
23,AGATCGAC,-0.0717
24,TCCACACA,0.0737
25,AATATTTA,0.295

row,Sequence,PBM E-score
1,ATGCACTG,-0.0349
2,CACGATAG,0.0653
3,ACACGGTC,-0.101
4,AGTTACAG,0.0982
5,AGCTGGGC,-0.24
6,GCAGTCAA,-0.153
7,GATCATTA,0.136
8,CGAACGCC,-0.157
9,AGCGGAAT,0.0899
10,CCAAATGA,0.124
11,GTCGTAAA,0.0345
12,CCAACACC,-0.221
13,AAAACTCC,-0.0969
14,AAAGTGTG,0.0545
15,CACTACTC,0.0537
16,ATTGGGAG,-0.073
17,TAGCAATA,0.0928
18,ACCAAAGA,0.15
19,CGTATAGC,0.00744
20,AGAACAAT,0.221
21,CAAAGATA,0.0838
22,TACTACCA,-0.122
23,CTCGCCGA,0.0481
24,AGTATAAT,0.293
25,ACGTGTAC,-0.0447

row,Sequence,PBM E-score
1,AGGCGTTA,-0.0289
2,CAATCCAA,0.0735
3,ATCGGATC,-0.0465
4,GCATATCC,-0.0566
5,CGTCCAGA,-0.223
6,GAAGCACC,-0.106
7,ATCTTGCA,0.151
8,CCGGACAC,-0.258
9,GACTACTC,-0.0706
10,CCGTGCAG,-0.0597
11,AATTGCGT,0.0658
12,CATAATAA,0.105
13,AGATACTG,0.0179
14,ACTCTCAC,0.0422
15,AATGACGA,0.164
16,CCTTGTCA,-0.0646
17,AGCGCTCA,-0.151
18,AAATGTGA,0.148
19,CCTGAATA,0.121
20,CACACAGC,-0.0551
21,AATATTGC,0.202
22,AGAGCAGA,0.0395
23,CGCGCACC,-0.0218
24,ATATGTAC,0.137
25,CGAATTCG,-0.0646

row,Sequence,PBM E-score
1,GAACGCGA,0.136
2,ATAGAAAA,0.217
3,AAGCCGCT,0.00103
4,AGACGGAT,0.16
5,CAGAGGCA,-0.0254
6,ACCGTATA,0.042
7,GCTCAAGC,-0.156
8,CACGTGGG,-0.143
9,AGAAAATA,0.208
10,CCCGGTCC,-0.272
11,TTAAGAAA,0.0138
12,AAAAATAA,0.25
13,CCGTAGAA,-0.139
14,ACCGCGAC,0.0742
15,AAGCTTGC,-0.158
16,GGACGCTA,-0.25
17,GGCCCATA,-0.0975
18,ACAGCGAC,-0.129
19,AGGTAGAG,-0.0672
20,CGGCAGTA,0.00023
21,ATTCCCGG,0.161
22,CCTAAGAG,-0.145
23,ACTTGGGC,-0.119
24,AGAGAACC,-0.235
25,TGGCCCCA,-0.322

# Copied from the entries so far for reference:
row,Sequence,PBM E-score
7,AGGTAGGC,-0.125
8,AGCACTAA,0.0886
9,CACGTCGA,-0.00872
10,CCTTGGTA,0.0365
11,GCTTGTAA,0.157
12,CTAAATCC,0.0159
13,ATCCATGG,-0.0629

# Later entries:

row,Sequence,PBM E-score
1,TCCCAGGA,-0.252
2,GATAGAAA,0.187
3,CCGATCGA,-0.0505
4,AGTCACGC,-0.108
5,CTAGATAG,-0.0252
6,ATACGGAA,0.185
7,ACCTGCCT,-0.103
8,AAATCTTC,-0.0255
9,GAATTCCA,0.195
10,AGGCAGAG,-0.0771
11,AACTATTC,0.125
12,TGTGGAAA,0.202
13,ATCTTTTC,0.102
14,ACTCCACC,0.0133
15,GGTGGTCA,-0.121
16,ACATAGCC,0.0395
17,AGAGAACA,0.206
18,AGGAGCCG,-0.331
19,CCCTATTC,0.00103
20,ATTCCCGC,0.126
21,CCCGCTGA,-0.219
22,GTATCAAA,0.187
23,CCTTGGCA,-0.247
24,CCCATAGG,-0.2
25,CACATTCC,0.051

row,Sequence,PBM E-score
1,AAGGGGCC,-0.211
2,CTGGCCAA,-0.0217
3,CGGCTATC,-0.105
4,ACTTAAAA,0.0505
5,ATGCGCGC,0.144
6,GTTATCGA,0.0176
7,ACGGTTGC,-0.0961
8,CAAGCGTA,-0.121
9,AGTTATTG,0.0615
10,CACCTCGC,-0.0346
11,ACGGGAGT,0.0215
12,AAGCCCTA,-0.149
13,CTTAACAC,0.114
14,CCCTGCAA,-0.192
15,ATTCTGTA,0.0245
16,AGAAGTAA,0.192
17,CGACACCC,-0.109
18,ACCCGCTA,-0.0496
19,CGCATCTA,0.208
20,CATGTCCC,0.0139
21,AAATTATG,0.208
22,GAGGTACC,-0.143
23,CTGCCATC,0.00415
24,AAGTGGTC,-0.0555
25,AGCGGATC,-0.0553

# 3 records picked at random from the list so far:
row,Sequence,PBM E-score
19,CGCATCTA,0.208
13,CTTAACAC,0.114
11,ACGGGAGT,0.0215

# More results

row,Sequence,PBM E-score
1,AGTTTGGG,0.211
2,AATGATGC,0.0306
3,AGCAAAAC,0.0939
4,AATCAGTG,-0.0532
5,TGCAATAA,0.272
6,GATCAGCC,-0.225
7,CCGTTAAG,-0.119
8,AACGTGAC,0.0815
9,CGGATTGA,0.0308
10,CGGTAGAA,-0.193
11,ATTGACGG,-0.0446
12,CGGAGGTA,-0.106
13,GGCGCGCA,0.0341
14,TCCTGCGA,-0.0222
15,ATGCTTTA,0.075
16,CTCGAGTA,0.165
17,CTTGTAAC,0.215
18,AGGTTACG,0.0423
19,AGAGGTCG,-0.14
20,AGCTTTTC,-0.0588
21,ACTCGAGA,0.0653
22,CAGGGGCC,-0.327
23,GCGGGCAC,-0.0624
24,CTATAAGA,0.182
25,ACCACCAG,-0.111

# Copied from the list:
# In PBM E-score, AATCAGTG reads -0.0532
# In PBM E-score, CGGTAGAA reads -0.193

# Following part:

row,Sequence,PBM E-score
1,GCCCTTAC,-0.14
2,CTTCCAGC,-0.203
3,TCGAAACA,0.226
4,CTCCTCAG,-0.218
5,GTCATCGA,-0.0869
6,TCCGTCGA,0.12
7,CAGTTTAA,-0.0438
8,ACCTGGGA,0.145
9,AATACTTA,0.113
10,TACGAGGA,0.0459
11,CCGCAGTA,-0.154
12,ACATTAGT,0.0888
13,GTAAGCAA,0.27
14,ATTTCAGC,-0.118
15,CTGACATC,-0.00129
16,CTTTTGGC,0.0304
17,AATGCAAC,0.104
18,ATACTTAA,0.177
19,TAATTCGA,0.103

# Source: the supplement of paper PMC3334620
